Data on one substance can be found in patent publication US5750506 (dated 1998).

The data set in a line: Boc solid-phase peptide synthesis; Boc-(N^w -tosyl)-arginine PAM resin; HOBt/carbodiimide preactivation. The note with it: whole synthesis, scale 0.5 mmole.

With “D-Arginyl-L-arginyl-L-prolyl-L-(4R-hydroxy)-prolyl-glycyl-L-phenylalanyl-(S-(4-n-hexyl)-phenyl)-cysteine-D-phenylalanyl-L-leucyl-L-arginine”, the isolated mass is listed as 200 mg.
